Source: PMC8636641

The chains behind the UniProt entries cited, without tags or fusion partners.
UniProt Q9HCK8: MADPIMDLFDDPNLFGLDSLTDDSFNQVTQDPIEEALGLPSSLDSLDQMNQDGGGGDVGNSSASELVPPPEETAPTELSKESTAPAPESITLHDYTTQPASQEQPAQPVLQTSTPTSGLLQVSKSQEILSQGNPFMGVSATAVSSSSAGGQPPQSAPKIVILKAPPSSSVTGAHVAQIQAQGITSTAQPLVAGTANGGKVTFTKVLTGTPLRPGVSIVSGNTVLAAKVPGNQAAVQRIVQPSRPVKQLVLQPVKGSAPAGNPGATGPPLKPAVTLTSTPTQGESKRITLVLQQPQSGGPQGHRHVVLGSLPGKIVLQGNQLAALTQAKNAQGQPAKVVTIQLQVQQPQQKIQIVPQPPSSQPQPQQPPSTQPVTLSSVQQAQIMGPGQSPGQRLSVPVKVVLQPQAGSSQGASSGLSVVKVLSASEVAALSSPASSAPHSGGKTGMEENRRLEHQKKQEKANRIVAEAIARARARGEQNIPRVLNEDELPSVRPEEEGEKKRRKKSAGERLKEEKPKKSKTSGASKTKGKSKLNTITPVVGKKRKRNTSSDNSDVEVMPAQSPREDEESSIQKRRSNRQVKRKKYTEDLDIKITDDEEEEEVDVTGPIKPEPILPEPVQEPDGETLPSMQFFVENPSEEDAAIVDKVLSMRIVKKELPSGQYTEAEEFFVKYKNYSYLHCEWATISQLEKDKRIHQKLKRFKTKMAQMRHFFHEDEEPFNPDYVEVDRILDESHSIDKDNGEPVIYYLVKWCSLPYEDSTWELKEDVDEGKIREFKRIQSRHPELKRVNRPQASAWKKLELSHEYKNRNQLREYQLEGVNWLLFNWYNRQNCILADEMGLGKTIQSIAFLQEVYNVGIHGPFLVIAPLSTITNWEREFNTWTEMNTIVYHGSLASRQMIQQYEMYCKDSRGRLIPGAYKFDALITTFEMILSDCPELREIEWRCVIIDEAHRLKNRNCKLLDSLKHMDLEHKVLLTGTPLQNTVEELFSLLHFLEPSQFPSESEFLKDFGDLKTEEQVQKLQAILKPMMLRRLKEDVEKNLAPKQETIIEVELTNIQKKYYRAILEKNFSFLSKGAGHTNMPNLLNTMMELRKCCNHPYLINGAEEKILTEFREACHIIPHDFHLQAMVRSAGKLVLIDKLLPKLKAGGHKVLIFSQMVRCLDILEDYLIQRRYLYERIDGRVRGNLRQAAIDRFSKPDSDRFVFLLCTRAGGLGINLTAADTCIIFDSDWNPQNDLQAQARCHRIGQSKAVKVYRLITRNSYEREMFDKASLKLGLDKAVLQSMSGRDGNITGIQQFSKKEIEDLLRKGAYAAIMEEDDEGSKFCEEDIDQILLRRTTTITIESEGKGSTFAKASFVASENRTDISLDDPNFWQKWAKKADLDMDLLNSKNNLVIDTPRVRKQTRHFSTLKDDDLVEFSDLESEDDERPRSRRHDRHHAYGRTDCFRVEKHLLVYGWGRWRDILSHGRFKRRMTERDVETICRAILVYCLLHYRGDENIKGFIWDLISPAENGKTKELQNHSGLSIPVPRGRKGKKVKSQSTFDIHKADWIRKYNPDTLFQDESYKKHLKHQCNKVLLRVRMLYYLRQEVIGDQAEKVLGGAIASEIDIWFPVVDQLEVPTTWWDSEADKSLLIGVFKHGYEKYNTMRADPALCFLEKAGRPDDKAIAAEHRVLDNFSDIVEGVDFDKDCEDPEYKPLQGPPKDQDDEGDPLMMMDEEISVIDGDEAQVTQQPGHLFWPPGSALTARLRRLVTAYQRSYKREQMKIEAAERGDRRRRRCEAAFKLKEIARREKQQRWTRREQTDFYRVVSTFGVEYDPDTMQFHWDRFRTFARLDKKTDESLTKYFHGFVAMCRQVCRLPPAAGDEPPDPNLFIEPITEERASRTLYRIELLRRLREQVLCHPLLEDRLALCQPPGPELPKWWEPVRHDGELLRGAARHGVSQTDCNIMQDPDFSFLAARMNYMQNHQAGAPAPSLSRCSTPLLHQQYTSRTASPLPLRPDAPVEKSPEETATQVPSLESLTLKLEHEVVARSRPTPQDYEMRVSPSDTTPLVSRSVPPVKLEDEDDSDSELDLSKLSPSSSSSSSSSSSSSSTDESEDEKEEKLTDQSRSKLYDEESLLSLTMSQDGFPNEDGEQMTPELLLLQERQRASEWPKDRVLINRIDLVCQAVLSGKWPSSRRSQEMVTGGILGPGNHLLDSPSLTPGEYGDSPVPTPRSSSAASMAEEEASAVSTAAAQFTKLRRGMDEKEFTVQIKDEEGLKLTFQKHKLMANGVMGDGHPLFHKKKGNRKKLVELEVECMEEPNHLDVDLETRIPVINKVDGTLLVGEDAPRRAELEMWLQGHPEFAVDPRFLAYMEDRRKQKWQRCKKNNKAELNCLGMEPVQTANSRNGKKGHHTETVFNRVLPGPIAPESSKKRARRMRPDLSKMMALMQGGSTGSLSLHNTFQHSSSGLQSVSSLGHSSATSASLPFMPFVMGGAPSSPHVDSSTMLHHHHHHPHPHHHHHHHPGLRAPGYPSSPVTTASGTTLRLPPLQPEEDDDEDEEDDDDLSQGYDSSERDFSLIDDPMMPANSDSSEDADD
UniProt P31946: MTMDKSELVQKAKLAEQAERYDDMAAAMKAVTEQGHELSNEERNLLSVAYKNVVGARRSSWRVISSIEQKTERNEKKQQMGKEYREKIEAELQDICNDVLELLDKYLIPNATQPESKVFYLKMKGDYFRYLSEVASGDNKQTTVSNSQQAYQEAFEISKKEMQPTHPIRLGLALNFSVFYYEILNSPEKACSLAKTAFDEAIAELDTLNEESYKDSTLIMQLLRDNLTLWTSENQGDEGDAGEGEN
UniProt Q9UPU5: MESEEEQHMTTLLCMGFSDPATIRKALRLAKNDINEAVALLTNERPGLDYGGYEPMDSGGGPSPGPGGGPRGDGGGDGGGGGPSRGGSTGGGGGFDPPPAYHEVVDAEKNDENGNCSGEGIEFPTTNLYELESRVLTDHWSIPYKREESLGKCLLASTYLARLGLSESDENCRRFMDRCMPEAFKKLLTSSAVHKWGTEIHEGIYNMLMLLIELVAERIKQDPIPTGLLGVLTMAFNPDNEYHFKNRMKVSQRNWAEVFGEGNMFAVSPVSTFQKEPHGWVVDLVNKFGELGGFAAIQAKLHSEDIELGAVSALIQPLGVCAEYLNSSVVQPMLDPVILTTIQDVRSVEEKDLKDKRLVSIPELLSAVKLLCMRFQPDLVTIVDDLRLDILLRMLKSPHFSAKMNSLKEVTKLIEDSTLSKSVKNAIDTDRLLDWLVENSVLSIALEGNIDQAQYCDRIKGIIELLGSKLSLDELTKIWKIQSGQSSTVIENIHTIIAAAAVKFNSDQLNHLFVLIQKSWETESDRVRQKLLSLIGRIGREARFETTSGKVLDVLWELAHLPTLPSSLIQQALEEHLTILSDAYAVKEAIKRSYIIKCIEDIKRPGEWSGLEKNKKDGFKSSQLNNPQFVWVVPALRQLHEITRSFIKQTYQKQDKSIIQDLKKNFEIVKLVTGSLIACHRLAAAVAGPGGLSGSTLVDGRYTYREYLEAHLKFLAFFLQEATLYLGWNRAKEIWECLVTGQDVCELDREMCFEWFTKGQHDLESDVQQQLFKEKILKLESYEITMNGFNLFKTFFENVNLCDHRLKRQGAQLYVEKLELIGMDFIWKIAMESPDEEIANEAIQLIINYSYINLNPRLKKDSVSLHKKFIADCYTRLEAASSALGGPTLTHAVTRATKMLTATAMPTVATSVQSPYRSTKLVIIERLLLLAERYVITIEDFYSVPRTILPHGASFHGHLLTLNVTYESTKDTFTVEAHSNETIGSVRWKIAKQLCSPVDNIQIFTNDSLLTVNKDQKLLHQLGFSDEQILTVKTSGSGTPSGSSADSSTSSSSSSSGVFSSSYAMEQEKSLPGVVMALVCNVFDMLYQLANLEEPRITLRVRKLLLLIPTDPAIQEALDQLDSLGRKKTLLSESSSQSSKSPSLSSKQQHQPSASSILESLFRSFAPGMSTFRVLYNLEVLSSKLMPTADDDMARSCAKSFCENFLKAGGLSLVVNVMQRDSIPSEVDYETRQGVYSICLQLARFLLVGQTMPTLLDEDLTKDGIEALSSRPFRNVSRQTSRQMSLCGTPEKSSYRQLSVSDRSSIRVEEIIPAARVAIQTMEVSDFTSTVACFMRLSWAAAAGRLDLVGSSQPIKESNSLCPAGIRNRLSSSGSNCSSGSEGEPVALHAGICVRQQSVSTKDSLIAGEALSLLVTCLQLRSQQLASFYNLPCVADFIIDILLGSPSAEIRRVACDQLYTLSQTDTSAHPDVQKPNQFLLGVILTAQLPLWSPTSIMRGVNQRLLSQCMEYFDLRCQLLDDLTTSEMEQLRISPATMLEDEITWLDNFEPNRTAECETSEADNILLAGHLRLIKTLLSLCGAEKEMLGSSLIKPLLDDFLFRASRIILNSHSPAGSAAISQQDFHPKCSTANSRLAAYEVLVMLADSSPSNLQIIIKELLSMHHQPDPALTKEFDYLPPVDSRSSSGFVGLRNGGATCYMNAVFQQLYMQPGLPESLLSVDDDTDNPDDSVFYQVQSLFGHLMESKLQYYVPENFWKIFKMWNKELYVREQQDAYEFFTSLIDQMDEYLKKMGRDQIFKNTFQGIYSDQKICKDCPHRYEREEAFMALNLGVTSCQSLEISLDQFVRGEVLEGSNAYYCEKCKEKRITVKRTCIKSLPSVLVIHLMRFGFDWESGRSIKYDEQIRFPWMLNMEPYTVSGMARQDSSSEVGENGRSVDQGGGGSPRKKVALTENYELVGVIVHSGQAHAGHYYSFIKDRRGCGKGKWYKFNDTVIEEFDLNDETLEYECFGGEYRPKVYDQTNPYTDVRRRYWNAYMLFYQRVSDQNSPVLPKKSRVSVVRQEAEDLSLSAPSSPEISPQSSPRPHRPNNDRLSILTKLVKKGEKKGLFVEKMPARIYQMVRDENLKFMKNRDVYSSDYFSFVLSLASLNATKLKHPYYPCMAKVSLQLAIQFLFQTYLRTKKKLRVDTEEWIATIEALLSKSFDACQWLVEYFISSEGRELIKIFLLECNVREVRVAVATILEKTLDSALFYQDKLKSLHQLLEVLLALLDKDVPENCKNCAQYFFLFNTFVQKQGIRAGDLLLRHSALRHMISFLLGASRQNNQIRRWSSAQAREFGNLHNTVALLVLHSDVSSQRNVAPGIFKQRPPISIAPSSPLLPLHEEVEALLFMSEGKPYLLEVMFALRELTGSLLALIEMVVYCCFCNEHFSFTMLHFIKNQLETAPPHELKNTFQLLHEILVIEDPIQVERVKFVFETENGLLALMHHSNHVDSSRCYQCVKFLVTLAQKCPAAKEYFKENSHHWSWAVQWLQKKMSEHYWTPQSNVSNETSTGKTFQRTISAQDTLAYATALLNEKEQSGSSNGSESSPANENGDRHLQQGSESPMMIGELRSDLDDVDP
UniProt Q9Y294: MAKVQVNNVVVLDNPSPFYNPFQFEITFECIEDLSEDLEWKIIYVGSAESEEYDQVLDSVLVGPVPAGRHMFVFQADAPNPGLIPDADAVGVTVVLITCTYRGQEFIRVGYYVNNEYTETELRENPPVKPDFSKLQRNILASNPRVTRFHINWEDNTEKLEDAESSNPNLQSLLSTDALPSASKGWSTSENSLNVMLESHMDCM
UniProt P19474: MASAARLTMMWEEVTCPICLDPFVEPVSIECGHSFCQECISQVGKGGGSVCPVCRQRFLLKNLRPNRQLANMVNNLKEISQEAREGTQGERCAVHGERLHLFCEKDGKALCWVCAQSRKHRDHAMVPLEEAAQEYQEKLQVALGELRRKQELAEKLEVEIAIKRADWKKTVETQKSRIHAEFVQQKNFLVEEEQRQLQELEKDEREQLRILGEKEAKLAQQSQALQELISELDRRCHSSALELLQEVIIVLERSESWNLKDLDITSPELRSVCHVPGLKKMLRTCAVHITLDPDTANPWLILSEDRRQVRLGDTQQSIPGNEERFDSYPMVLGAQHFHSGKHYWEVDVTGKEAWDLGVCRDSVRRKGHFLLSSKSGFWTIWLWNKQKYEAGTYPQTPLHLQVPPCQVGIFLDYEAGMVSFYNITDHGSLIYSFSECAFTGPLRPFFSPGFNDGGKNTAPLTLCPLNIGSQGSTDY
UniProt Q9BUL8: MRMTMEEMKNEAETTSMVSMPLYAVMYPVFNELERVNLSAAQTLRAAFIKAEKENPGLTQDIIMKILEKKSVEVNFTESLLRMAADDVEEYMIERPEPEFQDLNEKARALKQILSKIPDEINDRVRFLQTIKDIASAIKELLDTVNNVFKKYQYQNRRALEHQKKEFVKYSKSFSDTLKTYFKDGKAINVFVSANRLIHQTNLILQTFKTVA

Key:
[1] = biological target: T1, C-terminal transmembrane domain deleted V5-tagged wild-type rat TAOK2 (amino acids 1-993) (rat) (UniProt Q9JLS3); assay: affinity purification with mass spectrometry; V5-tagged rat TAOK2 variants (1-993) expressed in HEK293T cells, cells mock-treated or transfected with 5 ug/ml poly(I:C) for 4 h; lysate in TAP lysis buffer (50 mM Tris-HCl pH 7.5, 100 mM NaCl, 1.5 mM MgCl2, 0.2% NP-40, 5% glycerol, Sm DNase); anti-V5-agarose, 3 h at 4 C; LC-MS/MS, enrichment against combined control baits EGFP and PGAM5
T1 sequence: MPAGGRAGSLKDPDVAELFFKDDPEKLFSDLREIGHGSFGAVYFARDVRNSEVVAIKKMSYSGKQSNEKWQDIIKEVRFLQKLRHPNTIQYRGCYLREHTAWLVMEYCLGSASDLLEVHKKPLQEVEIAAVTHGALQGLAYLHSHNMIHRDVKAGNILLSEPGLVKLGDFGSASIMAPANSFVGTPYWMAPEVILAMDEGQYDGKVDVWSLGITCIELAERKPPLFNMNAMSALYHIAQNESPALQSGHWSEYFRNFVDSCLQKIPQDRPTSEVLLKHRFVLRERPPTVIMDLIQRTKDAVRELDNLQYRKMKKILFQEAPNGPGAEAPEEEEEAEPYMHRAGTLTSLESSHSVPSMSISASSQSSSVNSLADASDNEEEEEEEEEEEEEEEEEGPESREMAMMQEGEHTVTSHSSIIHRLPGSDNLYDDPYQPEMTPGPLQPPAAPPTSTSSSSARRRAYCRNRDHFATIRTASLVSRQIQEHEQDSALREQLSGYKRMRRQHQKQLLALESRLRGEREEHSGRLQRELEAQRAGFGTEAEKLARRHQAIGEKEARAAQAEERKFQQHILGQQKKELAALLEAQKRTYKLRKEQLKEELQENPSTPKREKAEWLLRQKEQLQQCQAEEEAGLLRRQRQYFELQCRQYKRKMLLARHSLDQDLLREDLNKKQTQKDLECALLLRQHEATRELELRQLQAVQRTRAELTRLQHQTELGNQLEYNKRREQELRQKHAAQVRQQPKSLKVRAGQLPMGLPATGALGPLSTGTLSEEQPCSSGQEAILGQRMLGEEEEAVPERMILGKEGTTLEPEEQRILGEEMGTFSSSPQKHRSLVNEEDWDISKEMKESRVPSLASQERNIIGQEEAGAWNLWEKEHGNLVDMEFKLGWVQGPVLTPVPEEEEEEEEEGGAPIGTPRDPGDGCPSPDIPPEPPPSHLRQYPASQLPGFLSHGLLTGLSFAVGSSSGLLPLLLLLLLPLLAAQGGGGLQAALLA

[2] = biological target: T2, rat TAOK2 D151A (amino acids 1-993, V5-tagged; mutation in the active site of the kinase domain) (rat) (UniProt Q9JLS3); assay: as above
T2 sequence: T1 sequence with D151A

With CHD8 (from UniProt Q9HCK8 1-2581) the binding [1] was “binds”.

With LRRFIP (human (endogenous in HEK293T)) the binding [1] was “binds”.

With YWHAB (from UniProt P31946 1-246) the binding [2] was “binds” and the binding [1] was “binds”.

For CAMK2G (from UniProt Q13555 1-558), the binding [2] was “binds” and the binding [1] was “binds”.

With USP24 (from UniProt Q9UPU5 1-2620) the binding [1] was “binds”.

With ASF1A (from UniProt Q9Y294 1-204) the binding [1] was “binds”.

In the case of TRIM21 (from UniProt P19474 1-475), the binding [1] is reported as “binds”.

With BCLAF1 (from UniProt Q9NYF8 1-920) the binding [1] was “binds”.

PDCD10 (from UniProt Q9BUL8 1-212) was tested, and the binding [1] was “binds”.

B1: BRAP (protein, UniProt Q7Z569 1-592)
chain: MSVSLVVIRLELAEHSPVPAGFGFSAAAGEMSDEEIKKTTLASAVACLEGKSPGEKVAIIHQHLGRREMTDVIIETMKSNPDELKTTVEERKSSEASPTAQRSKDHSKECINAAPDSPSKQLPDQISFFSGNPSVEIVHGIMHLYKTNKMTSLKEDVRRSAMLCILTVPAAMTSHDLMKFVAPFNEVIEQMKIIRDSTPNQYMVLIKFRAQADADSFYMTCNGRQFNSIEDDVCQLVYVERAEVLKSEDGASLPVMDLTELPKCTVCLERMDESVNGILTTLCNHSFHSQCLQRWDDTTCPVCRYCQTPEPVEENKCFECGVQENLWICLICGHIGCGRYVSRHAYKHFEETQHTYAMQLTNHRVWDYAGDNYVHRLVASKTDGKIVQYECEGDTCQEEKIDALQLEYSYLLTSQLESQRIYWENKIVRIEKDTAEEINNMKTKFKETIEKCDNLEHKLNDLLKEKQSVERKCTQLNTKVAKLTNELKEEQEMNKCLRANQVLLQNKLKEEERVLKETCDQKDLQITEIQEQLRDVMFYLETQQKINHLPAETRQEIQEGQINIAMASASSPASSGGSGKLPSRKGRSKRGK
With B1 the binding [1] was “binds”.

B2: BEND3 (protein, UniProt Q5T5X7 1-828)
chain: MNSTEFTEDVEEVLKSITVKVETEAEDAALDCSVNSRTSEKHSVDSVLTALQDSSKRKQLVSDGLLDSVPGVKRRRLIPEALLAGMRNRENSSPCQGNGEQAGRGRSLGNVWPGEEEPCNDATTPSYKKPLYGISHKIMEKKNPPSGDLLNVYELFEKANASNSPSSLRLLNEPQKRDCGSTGAGTDNDPNIYFLIQKMFYMLNTLTSNMSQLHSKVDLLSLEVSRIKKQVSPTEMVAKFQPPPEYQLTAAELKQIVDQSLSGGDLACRLLVQLFPELFSDVDFSRGCSACGFAAKRKLESLHLQLIRNYVEVYYPSVKDTAVWQAECLPQLNDFFSRFWAQREMEDSQPSGQVASFFEAEQVDPGHFLDNKDQEEALSLDRSSTIASDHVVDTQDLTEFLDEASSPGEFAVFLLHRLFPELFDHRKLGEQYSCYGDGGKQELDPQRLQIIRNYTEIYFPDMQEEEAWLQQCAQRINDELEGLGLDAGSEGDPPRDDCYDSSSLPDDISVVKVEDSFEGERPGRRSKKIWLVPIDFDKLEIPQPDFEVPGADCLLSKEQLRSIYESSLSIGNFASRLLVHLFPELFTHENLRKQYNCSGSLGKKQLDPSRIKLIRHYVQLLYPRAKNDRVWTLEFVGKLDERCRRRDTEQRRSYQQQRKVHVPGPECRDLTSYAINPERFREEFEGPPLPPERSSKDFCKIPLDELVVPSPDFPVPSPYLLSDKEVREIVQQSLSVGNFAARLLVRLFPELFTAENLRLQYNHSGACNKKQLDPTRLRLIRHYVEAVYPVEKMEEVWHYECIPSIDERCRRPNRKKCDILKKAKKVEK
With B2 the binding [1] was “binds”.

B3: WDR83 (protein, UniProt Q9BRX9 1-315)
chain: MAFPEPKPRPPELPQKRLKTLDCGQGAVRAVRFNVDGNYCLTCGSDKTLKLWNPLRGTLLRTYSGHGYEVLDAAGSFDNSSLCSGGGDKAVVLWDVASGQVVRKFRGHAGKVNTVQFNEEATVILSGSIDSSIRCWDCRSRRPEPVQTLDEARDGVSSVKVSDHEILAGSVDGRVRRYDLRMGQLFSDYVGSPITCTCFSRDGQCTLVSSLDSTLRLLDKDTGELLGEYKGHKNQEYKLDCCLSERDTHVVSCSEDGKVFFWDLVEGALALALPVGSGVVQSLAYHPTEPCLLTAMGGSVQCWREEAYEAEDGAG
For B3, the binding [2] was “binds” and the binding [1] was “binds”.

B4: BAG1 (protein, UniProt Q99933 1-345)
chain: MAQRGGARRPRGDRERLGSRLRALRPGREPRQSEPPAQRGPPPSGRPPARSTASGHDRPTRGAAAGARRPRMKKKTRRRSTRSEELTRSEELTLSEEATWSEEATQSEEATQGEEMNRSQEVTRDEESTRSEEVTREEMAAAGLTVTVTHSNEKHDLHVTSQQGSSEPVVQDLAQVVEEVIGVPQSFQKLIFKGKSLKEMETPLSALGIQDGCRVMLIGKKNSPQEEVELKKLKHLEKSVEKIADQLEELNKELTGIQQGFLPKDLQAEALCKLDRRVKATIEQFMKILEEIDTLILPENFKDSRLKRKGLVKKVQAFLAECDTVEQNICQETERLQSTNFALAE
In the case of B4, the binding [1] is reported as “binds”.

Where a chain is given by its changes, count along the chain named. Results are given in words; binding and its absence hold for the method and conditions named. Binding seen in cells or lysates may run through a third protein. A yes stands for co-enrichment or nearness to the bait. Other partners may have been found. Where a sequence is shown, tags or fusion partners need not be part of it.
